Non-standard residues stand in square brackets, D forms with d. Residues, ends and D or L forms follow the SMILES beside them. *: point of attachment. NOTA = O=C(O)CN1CCN(CC(=O)O)CCN(CC(=O)*)CC1
What was measured:
[1] = Zeta potential of CAP-liposome mixtures; conditions: for Change of zeta potential of liposomes on addition of CAPs: 0, 10 or 20 µM, 1 h, 37 °C, 10 mM HEPES pH 7.4, n = 3; for Affinity for negatively charged phospholipids (regions containing PS): from zeta potential and CD spectra, neutral solution
[2] = CD spectroscopy of CAP-liposome mixture; conditions: 150 μM; for Secondary structure by CD in buffer alone: 50 mM BTP, 150 mM NaF, pH 7.4, 37 °C; for CD spectrum with negatively charged DOPC/DOPS (1:1) vesicles: pH 7.4 buffer

Row | SMILES | Change of zeta potential of liposomes on addition of CAPs [1] | Affinity for negatively charged phospholipids (regions containing PS) [1] | Secondary structure by CD in buffer alone [2] | CD spectrum with negatively charged DOPC/DOPS (1:1) vesicles [2]
1 | CC(C)[C@H](NC(=O)[C@H](CCCNC(=N)N)NC(=O)[C@@H](NC(=O)[C@H](CCCNC(=N)N)NC(=O)[C@@H](NC(=O)[C@H](CCCNC(=N)N)NC(=O)[C@@H](NC(=O)[C@@H]1CCCN1C(=O)[C@H]1CCCN1C(=O)[C@@H](NC(=O)[C@H](CCCNC(=N)N)NC(=O)[C@@H](NC(=O)[C@H](CCCNC(=N)N)NC(=O)[C@@H](NC(=O)[C@H](CCCNC(=N)N)NC(=O)[C@@H](NC(=O)[C@H](CCCNC(=N)N)NC(=O)CN1CCN(CC(=O)O)CCN(CC(=O)O)CC1)C(C)C)C(C)C)C(C)C)C(C)C)[C@@H](C)O)C(C)C)C(C)C)C(=O)N[C@@H](CCCNC(=N)N)C(N)=O [NOTA-RV6] ({NOTA}-RVRVRVRV[dP]PTRVRVRVR-NH2) | dose-dependent increases | high affinity | random coils | characteristic of the β-sheet
2 | CC(C)[C@H](NC(=O)[C@H](Cc1c[nH]cn1)NC(=O)[C@@H](NC(=O)[C@H](Cc1c[nH]cn1)NC(=O)[C@@H](NC(=O)[C@H](Cc1c[nH]cn1)NC(=O)[C@@H](NC(=O)[C@@H]1CCCN1C(=O)[C@H]1CCCN1C(=O)[C@@H](NC(=O)[C@H](Cc1c[nH]cn1)NC(=O)[C@@H](NC(=O)[C@H](Cc1c[nH]cn1)NC(=O)[C@@H](NC(=O)[C@H](Cc1c[nH]cn1)NC(=O)[C@@H](NC(=O)[C@H](Cc1c[nH]cn1)NC(=O)CN1CCN(CC(=O)O)CCN(CC(=O)O)CC1)C(C)C)C(C)C)C(C)C)C(C)C)[C@@H](C)O)C(C)C)C(C)C)C(=O)N[C@@H](Cc1c[nH]cn1)C(N)=O [NOTA-HV6] ({NOTA}-HVHVHVHV[dP]PTHVHVHVH-NH2) |  | lower binding affinity | mixture of random coils and β-sheets | did not significantly change
3 | CC(C)[C@H](NC(=O)[C@H](CCCCN)NC(=O)[C@@H](NC(=O)[C@H](CCCCN)NC(=O)[C@@H](NC(=O)[C@H](CCCCN)NC(=O)[C@@H](NC(=O)[C@@H]1CCCN1C(=O)[C@H]1CCCN1C(=O)[C@@H](NC(=O)[C@H](CCCCN)NC(=O)[C@@H](NC(=O)[C@H](CCCCN)NC(=O)[C@@H](NC(=O)[C@H](CCCCN)NC(=O)[C@@H](NC(=O)[C@H](CCCCN)NC(=O)CN1CCN(CC(=O)O)CCN(CC(=O)O)CC1)C(C)C)C(C)C)C(C)C)C(C)C)[C@@H](C)O)C(C)C)C(C)C)C(=O)N[C@@H](CCCCN)C(N)=O [NOTA-KV6] ({NOTA}-KVKVKVKV[dP]PTKVKVKVK-NH2) | dose-dependent increases | high affinity | random coils | characteristic of the β-sheet

From article PMC8155856, “Synthesis and Characterization of Radiogallium-Labeled Cationic Amphiphilic Peptides as Tumor Imaging Agents” (Cancers, 2021)
